Data from US11760889B2, “Unsaturated fatty alcohol derivatives from natural oil metathesis” (priority 2012, dated 2023).

Test: Agricultural dispersant screening (sedimentation of pesticide powder in hard water)
Design: key to Sedimentation results at 1 h: Trace of sediment=“Tr”; flocked is also abbreviated as “FI.”
[1] = Chlorothalonil, test water 342 ppm
[2] = Chlorothalonil, test water 1000 ppm
[3] = Imidacloprid, test water 342 ppm
[4] = Imidacloprid, test water 1000 ppm
[5] = Tebuconazole, test water 342 ppm
[6] = Tebuconazole, test water 1000 ppm

Row | Substance | Sedimentation results at 24 h (Atrazine, test water 342 ppm) [mL] | Sedimentation results at 1 h (Atrazine, test water 1000 ppm) [mL] | Sedimentation results at 24 h (Atrazine, test water 1000 ppm) [mL] | Sedimentation results at 1 h [1] [mL] | Sedimentation results at 24 h [1] [mL] | Sedimentation results at 1 h [2] [mL] | Sedimentation results at 24 h [2] [mL] | Sedimentation results at 1 h (Diuron, test water 342 ppm) [mL] | Sedimentation results at 24 h (Diuron, test water 342 ppm) [mL] | Sedimentation results at 1 h (Diuron, test water 1000 ppm) [mL] | Sedimentation results at 24 h (Diuron, test water 1000 ppm) | Sedimentation results at 1 h [3] | Sedimentation results at 24 h [3] | Sedimentation results at 1 h [4] | Sedimentation results at 24 h [4] | Sedimentation results at 1 h [5] | Sedimentation results at 1 h [6] | Sedimentation results at 1 h (Atrazine, test water 342 ppm) [mL] | Sedimentation results at 24 h [5] [mL]
1 | 3 Mole Ethoxylated C10 Alcohol, Ammonium Sulfate [A10-8] | 1.25 to 1.5 | 0.25 | 1.5 to 1.75 | 0.25 to 0.5 | 1 to 1.25 | 0.25 to 0.75 | 1.75 to 2.0 | 0.5 to 0.75 | 1 to 1.25 | 0.5 to 0.75 | 1 to 1.25 mL | 4.75 to 5.0 mL | Fl. | 4.5 to 4.75 mL | Fl. | flocked | flocked | – | –
2 | 15 Mole Ethoxylated C10 Alcohol, Sodium Sulfate [A10-18] | 1.0 to 1.25 | 0.25 | 1.5 | 0.25 | 1.5 to 1.75 | 0.25 | 1.0 to 1.25 | 0.5 to 0.75 | 1.25 to 1.5 | 1.0 to 1.25 | Fl. | flocked | – | flocked | – | flocked | flocked | 0.25 | –
3 | 3 Mole Ethoxylated C10 Alcohol, Sodium Sulfate [A10-9] | 0.75 to 1.25 | 0.25 | 1.5 to 2.0 | 0.75 to 1.0 | 1.5 to 1.75 | 0.25 | 0.5 to 0.75 | 0.5 | 1.0 to 1.25 | 0.5 to 0.75 | 1.25 to 1.75 mL | 2.75 to 3.0 mL | Fl. | 3.5 to 3.75 mL | Fl. | flocked | flocked | 0.25 | –
4 | 1 Mole Ethoxylated C10 Alcohol, Ammonium Sulfate [A10-5] | 1.25 to 1.5 | 0.25 | 1 to 1.25 | 0.5 to 1.5 | 2 to 2.25 | 0.5 to 0.75 | 1 to 1.5 | 0.5 | 0.75 to 1 | 0.5 to 0.75 | 1 mL | flocked | – | flocked | – | flocked | flocked | 0.25 | –
5 | 7 Mole Ethoxylated C10 Alcohol, Sodium Sulfate [A10-15] | 1.0 to 1.25 | – | 0.75 to 1.0 | 0.25 to 0.75 | 1.5 to 1.75 | 0.75 to 1.25 | 2 | 0.5 to 0.75 | 1.25 to 1.5 | 0.5 to 0.75 | 1.25 to 1.5 mL | flocked | – | flocked | – | flocked | flocked | 0.25 to 0.5 | –
6 | 1 Mole Ethoxylated C10 Alcohol, Sodium Sulfate [A10-6] | 1 to 1.25 | 0.25 | 1 to 1.25 | 0.5 to 0.75 | 1.25 to 1.5 | 0.75 | 1.5 | 0.25 to 0.5 | 0.5 to 1 | 0.5 | 1 mL | flocked | – | flocked | – | flocked | flocked | 0.25 to 0.5 | –
7 | 15 Mole Ethoxylated C10 Alcohol, Ammonium Sulfate [A10-17] | 1 | 0.25 to 0.5 | 1.0 to 1.25 | 0.75 to 1.25 | 1.75 to 2.0 | 0.5 to 0.75 | 1.25 to 1.5 | 0.5 to 0.75 | 1.0 to 1.25 | 1.25 to 1.5 | Fl. | flocked | – | flocked | – | flocked | flocked | 0.25 to 0.75 | –
8 | 5 Mole Ethoxylated C12 Alcohol, Ammonium Sulfate [A12-11] | 1.0 to 1.25 | 0.5 to 1.0 | 1.0 to 2.25 | 0.5 to 1.25 | 1.0 to 1.5 | 0.75 to 1.5 | 1.5 to 2.75 | 1.0 to 1.5 | 2.0 to 2.5 | 2.0 to 2.25 | Fl. | 1.0 to 1.25 mL | 2.0 to 2.5 mL | 2.0-2.5; 2.0-2.5 mL | 2.0-2.5; 2.0-2.5 mL | Tr | flocked | 0.25 to 0.5 | 3.0 to 3.25
9 | 5 Mole Ethoxylated C10 Alcohol, Sodium Sulfate [A10-12] | 1 | 0.25 | 1 | 0.75 | 1.75 to 2.0 | 0.75 to 1.0 | 1.5 to 1.75 | 0.5 to 0.75 | 1.5 to 1.75 | 0.75 | Fl. | 2.0 to 2.25 mL | Fl. | 2 mL | Fl. | flocked | flocked | 0.25 | –
10 | 5 Mole Ethoxylated C10 Alcohol, Ammonium Sulfate [A10-11] | 1.75 | 0.5 | 1.75 to 2 | 0.5 to 0.75 | 1.5 to 1.75 | 0.5 | 1 to 1.25 | 0.5 | 1 | 0.75 | 2 mL | flocked | – | flocked | – | flocked | flocked | 0.5 | –
